Source: PMC5123071
These are yes or no findings as the source states them, for the method shown.

Protein sequences, listed by entry. Tags and fused reporters are not part of them. Lines headed by an entry give the natural chain unless they say otherwise; changes in a name come on top.
UniProt O14727: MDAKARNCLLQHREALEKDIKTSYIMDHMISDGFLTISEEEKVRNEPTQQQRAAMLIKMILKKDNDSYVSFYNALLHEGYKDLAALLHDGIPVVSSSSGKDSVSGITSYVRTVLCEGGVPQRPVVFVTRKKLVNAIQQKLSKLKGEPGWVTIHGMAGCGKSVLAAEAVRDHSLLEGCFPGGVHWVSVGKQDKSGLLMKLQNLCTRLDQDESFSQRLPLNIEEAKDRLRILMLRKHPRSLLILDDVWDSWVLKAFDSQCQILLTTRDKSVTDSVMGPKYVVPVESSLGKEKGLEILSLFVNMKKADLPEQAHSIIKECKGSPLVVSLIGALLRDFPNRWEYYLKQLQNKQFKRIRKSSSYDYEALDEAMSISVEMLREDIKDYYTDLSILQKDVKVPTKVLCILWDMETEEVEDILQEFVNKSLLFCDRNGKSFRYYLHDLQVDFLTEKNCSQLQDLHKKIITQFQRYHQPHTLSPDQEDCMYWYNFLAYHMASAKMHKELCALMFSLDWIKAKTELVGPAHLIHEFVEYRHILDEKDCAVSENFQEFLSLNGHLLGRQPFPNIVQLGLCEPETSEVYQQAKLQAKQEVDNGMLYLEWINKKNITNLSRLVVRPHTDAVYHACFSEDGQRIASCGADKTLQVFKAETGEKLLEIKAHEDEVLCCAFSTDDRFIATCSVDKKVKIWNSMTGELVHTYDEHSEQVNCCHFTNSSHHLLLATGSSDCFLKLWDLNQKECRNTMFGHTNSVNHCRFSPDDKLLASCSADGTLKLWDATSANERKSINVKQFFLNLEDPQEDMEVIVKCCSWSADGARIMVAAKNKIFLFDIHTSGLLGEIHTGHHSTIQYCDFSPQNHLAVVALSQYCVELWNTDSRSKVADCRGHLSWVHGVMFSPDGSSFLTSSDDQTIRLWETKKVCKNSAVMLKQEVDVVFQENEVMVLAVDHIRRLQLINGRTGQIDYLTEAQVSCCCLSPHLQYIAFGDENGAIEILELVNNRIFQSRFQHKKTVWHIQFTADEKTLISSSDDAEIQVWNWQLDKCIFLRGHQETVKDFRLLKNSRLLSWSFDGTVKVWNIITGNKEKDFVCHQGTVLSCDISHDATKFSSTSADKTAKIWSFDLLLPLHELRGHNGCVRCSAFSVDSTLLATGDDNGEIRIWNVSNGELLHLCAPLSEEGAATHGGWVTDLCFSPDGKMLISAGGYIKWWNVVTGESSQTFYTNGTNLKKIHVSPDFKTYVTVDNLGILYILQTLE

Biological target: recombinant full-length Apaf-1XL (UniProt O14727)
Assay: SEC; as a2 but in the absence of Cc and dATP: Apaf-1 (300 nM) with C9 protein (200 nM); Superose-6 gel filtration, immunoblot; both purified

In the case of “recombinant full-length Apaf-1XL (from UniProt O14727-1 1-1248)”, the binding is reported as “no binding (condition: in the absence of Cc and dATP)”.
